# Measurements from article PMC7819943, “Rice protein-binding microarrays: a tool to detect cis-acting elements near promoter regions in rice”.
# By UniProt entry, the sequences of proteins in these tests, tags left out.
# UniProt Q0JBA9, entry or part of it: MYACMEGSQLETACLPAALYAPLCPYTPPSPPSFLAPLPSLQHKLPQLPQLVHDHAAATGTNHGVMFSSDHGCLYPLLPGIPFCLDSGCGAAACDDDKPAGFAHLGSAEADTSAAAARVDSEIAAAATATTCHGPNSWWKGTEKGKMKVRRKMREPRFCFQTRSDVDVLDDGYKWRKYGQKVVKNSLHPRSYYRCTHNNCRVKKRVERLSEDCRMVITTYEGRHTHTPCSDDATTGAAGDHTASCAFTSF
# The list shows a part of the results.
# Target: OsWRKY34 (Oryza sativa, UniProt Q0JBA9 1-250)
# Test: protein-binding microarray (RPBM); PBS, 2% BSA, 51.3 ng/ul salmon testes DNA, 50 uM zinc acetate, 200 nM TF, 25 C, 1 h; high values mean tight binding
# Details: protein: recombinant; tags: N-terminal polyhistidine and DsRed monomer fusion (pET32a); label: CyDye5-dUTP incorporated in the synthesized complementary strand; 3' TTTTT single-stranded linker to array surface; dsDNA, one strand shown
# Summary of the method: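 The binding signal is fluorescence intensity per array feature (arbitrary units). Readings came from an Axon 4000B scanner after a washed, 2% BSA-blocked, double-stranded custom Agilent array had been incubated for 1 h at 25 °C with 200 nM protein and 50 µM zinc acetate. The protein was a Ni–NTA-purified transcription factor fused N-terminally to polyhistidine and DsRed, expressed in E. coli BL21-CodonPlus.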
row,Sequence,binding signal
1,GGTTGTGATTGGTTGAGAAGTGGAGGTAGCTGAGAAAATTCGGAGTCACCTAGTGCAG,9420 fluorescence intensity (a.u.)
2,ACTTAGAACTAGGCTATGTTTCATGTCTTTCACTTTGGATCGGAGTCACCTAGTGCAG,9540 fluorescence intensity (a.u.)
3,TTTTTTTGGGCAAGTCTTTTGTCTCTTTAATTGTGTGTTACGGAGTCACCTAGTGCAG,8680 fluorescence intensity (a.u.)
4,TTATTTTGGCCATTTTTTCTTGCGACTTTGTTTTATCAATCGGAGTCACCTAGTGCAG,8070 fluorescence intensity (a.u.)
5,AGGTTTATGTCAGTCGAAGATTCTTCACTGCTACTGCTCTCGGAGTCACCTAGTGCAG,9310 fluorescence intensity (a.u.)
6,TCCACCAATGGCCCTCTTGCCCATTGTTTTCTTCTTGTCCCGGAGTCACCTAGTGCAG,12900 fluorescence intensity (a.u.)
7,ATCTGGACTTTCTCTAGTGCTCAACTGCTGACTCTGTTGACGGAGTCACCTAGTGCAG,9300 fluorescence intensity (a.u.)
8,TTTTAGTTTGCATTCATCTTCCTTTCCGCGAACTCTCACTCGGAGTCACCTAGTGCAG,9860 fluorescence intensity (a.u.)
9,CACATTACACGTTACTAGTAACATGGTGACATACTTTTTCCGGAGTCACCTAGTGCAG,8950 fluorescence intensity (a.u.)
10,AATGGTCTTAGCAGCTAATTACTCTCTACACTAATATGACCGGAGTCACCTAGTGCAG,8980 fluorescence intensity (a.u.)
11,CCCCAGTTTTGCCACCATGCGGTTCATTGTATTGCTACATCGGAGTCACCTAGTGCAG,8780 fluorescence intensity (a.u.)
12,CCCCTCAGTACTCCTGCCTCTGTCCCCATGGCATGTTACACGGAGTCACCTAGTGCAG,10500 fluorescence intensity (a.u.)
13,TTTCATCCAGCTAGCTACTGTATTACCTTAATTTCCTACTCGGAGTCACCTAGTGCAG,10500 fluorescence intensity (a.u.)
14,CCCTCCAGTTTATTGTTTTGCCTATCGATCTCTTGTTGTTCGGAGTCACCTAGTGCAG,13900 fluorescence intensity (a.u.)
15,TTTCATACCTTAATTCTGCATTCCTGGCTAAATTATCTTCCGGAGTCACCTAGTGCAG,8590 fluorescence intensity (a.u.)
16,CTCTAGGAGACACTCGCCACACAGTCTCTAAGCTGTCCCTCGGAGTCACCTAGTGCAG,8140 fluorescence intensity (a.u.)
17,ACCCCATTTTTTTTGAAAATTCTCGAATTTTATTTTTTTTCGGAGTCACCTAGTGCAG,8750 fluorescence intensity (a.u.)
18,CGATTTCCACTTTCGTTTGCTTTCGGGGTTCCAATTTGAGCGGAGTCACCTAGTGCAG,11200 fluorescence intensity (a.u.)
19,TGTTTGTAATAGATTGGTACTTTTGTCGGCCTTGTGAATTCGGAGTCACCTAGTGCAG,8790 fluorescence intensity (a.u.)
20,GCATCGCCCAGCTTTTTTTCATTTTTCTCTGTTTGTTTCGCGGAGTCACCTAGTGCAG,9360 fluorescence intensity (a.u.)
21,AATCTCTCTGTTACTCTCCTACGCGTTTGCTTCAAGCTTTCGGAGTCACCTAGTGCAG,15600 fluorescence intensity (a.u.)

row,Sequence,binding signal
1,ACTAAGTGTGGCTCGTTTTCAGTATTCCTTTCGTTGAATACGGAGTCACCTAGTGCAG,9360 fluorescence intensity (a.u.)
2,CTCTCTCTGCCTTCCTCCTTGACCGATCGCTCCCTTCTGACGGAGTCACCTAGTGCAG,8160 fluorescence intensity (a.u.)
3,CACACACTTCCTCATTCTCGGGGACACGGCCGGTCGCACACGGAGTCACCTAGTGCAG,8560 fluorescence intensity (a.u.)
4,GAGCGGTCCACATATATATTTTGATCATGCATGGTGCATTCGGAGTCACCTAGTGCAG,8130 fluorescence intensity (a.u.)
5,ATCTACACAGCATCGCCGCCGCCGCCGCATCCCCTTTGCACGGAGTCACCTAGTGCAG,9030 fluorescence intensity (a.u.)
6,GAACTGATAAATGATTCGAAACATTTAATAACCAAAGAAACGGAGTCACCTAGTGCAG,8030 fluorescence intensity (a.u.)
7,TCCCACCACCTGCGCCACGCGCGCGCGCGTCCTTCGGGCACGGAGTCACCTAGTGCAG,9000 fluorescence intensity (a.u.)
8,GTCTTCTTTTGAGGTGTGATTATGTTTGAAACTTTTTTTTCGGAGTCACCTAGTGCAG,9080 fluorescence intensity (a.u.)
9,GTTGCCTTGGGTGGGCCGAATTCGCTAACTGGGTATAGGTCGGAGTCACCTAGTGCAG,11100 fluorescence intensity (a.u.)
10,CCAATTTTTTTTTCTCCTTTTGCTTTTTTTCATCAAGAACCGGAGTCACCTAGTGCAG,8740 fluorescence intensity (a.u.)
11,CCATCATATGATCCTATCCGGCGGCCACACTGCAAATCTGCGGAGTCACCTAGTGCAG,8690 fluorescence intensity (a.u.)
12,TTTTTCTCTATAAATTTAGTCAAACATATATAACTTTGACCGGAGTCACCTAGTGCAG,8080 fluorescence intensity (a.u.)
13,CTGGGGAGGGCGACGGCGCAGTGCGGGGTGGACGGGAGCGCGGAGTCACCTAGTGCAG,8270 fluorescence intensity (a.u.)
14,TTGTGTGGGTGATGTGAAGATGCTGGTGAAAGCCTTGCCGCGGAGTCACCTAGTGCAG,8780 fluorescence intensity (a.u.)
15,ATTTAAGGTTTTTCCATCGTAGTTTATTTTTTAGCATTTGCGGAGTCACCTAGTGCAG,8590 fluorescence intensity (a.u.)
16,GCCCGCACGTCTTCCGCGGCCACGCCACCGCCGATCCCCACGGAGTCACCTAGTGCAG,9520 fluorescence intensity (a.u.)
17,GTAGAATAGTGTGGGTTTCTGTATCTAACGTTTGACTGTCCGGAGTCACCTAGTGCAG,8790 fluorescence intensity (a.u.)
18,AGTTCGGAAGCCCTCGCCGCTATCGCCGCGCGCTCAGCGCCGGAGTCACCTAGTGCAG,8220 fluorescence intensity (a.u.)
19,ATACATCTTTGACCTTATTTTTCTATTATAATATATATAACGGAGTCACCTAGTGCAG,9550 fluorescence intensity (a.u.)
20,CGCAATCCACTTTCTCTCGCCAAGTCGTCGTCCATCCGATCGGAGTCACCTAGTGCAG,9020 fluorescence intensity (a.u.)
21,ACTCTTGAACCCACTTAGAAACCATATGGCTAAATATAACCGGAGTCACCTAGTGCAG,8110 fluorescence intensity (a.u.)

# Looked up one by one from the entries so far:
row,Sequence,binding signal
13,CTGGGGAGGGCGACGGCGCAGTGCGGGGTGGACGGGAGCGCGGAGTCACCTAGTGCAG,8270 fluorescence intensity (a.u.)
16,GCCCGCACGTCTTCCGCGGCCACGCCACCGCCGATCCCCACGGAGTCACCTAGTGCAG,9520 fluorescence intensity (a.u.)
